# In PubChem BioAssay AID1571 (National Center for Advancing Translational Sciences (NCATS), 2009):
# Several values for one entry are separate records, joined by “and”; a condition that tells them apart may be missing. Identical values can stand only once. The inconclusive results got no clear call from the source; some entries with a clear call stand among them for comparison. A potency beside an inconclusive call is a rough fit, not a confirmed value. Activity calls are given as the source filed them. Calls come from the whole dose curve; as a rule, active = well fitted curve in the direction sought with a large enough effect; inconclusive = small, poorly fitted or top-dose-only effect, or effect the other way; inactive = flat fitted curve, though single readings scatter.
# Assay: Total Fluorescence Confirmation Counterscreen for Inhibitors of the Interaction of Thyroid Hormone Receptor and Steroid Receptor Coregulator 2, Fluorescein Fluoroprobe
# Settings: TRbeta/SRC2-fluorescein mix, total fluorescence interference; series mostly up to 92.2 µM; total fluorescence change, positive = fluorescent: at the top concentration
# Excerpt: NIH Molecular Libraries Probe Production Network [MLPCN] NIH Chemical Genomics Center [NCGC] MLPCN Grant: DK058080 Assay Provider: R. Kip Guy, St. Jude Children's Research Hospital NCGC Assay Overview: Thyroid receptor (TR) regulates many homeostatic processes including basal metabolism, cardiovascular function, body weight, and lipid trafficking. TR modulators are potential therapeutics for obesity and hyperlipidemias but current thyroid analogs have undesirable side effects, particularly cardiac stimulation. To identify inhibitors that specifically prevent the interaction of TR with the steroid receptor coregulator 2 (SRC2), a fluorescence polarization assay was screened (Arnold et al., 2006). This assay detects interaction of the ligand-binding domain of human TRbeta with a fluorescein labeled SRC2 peptide, corresponding to a 20 amino acid region of the nuclear receptor interaction domain. Total fluorescence (555 nm excitation and 632 nm emission) was measured to identify potential fluorescent and light absorbing compounds. Such compounds may be artifacts that interfere with the fluorescence polarization assay. This assay is a confirmation assay for AID 1479. Arnold, L. A.; Estebanez-Perpina, E.; Togashi, M.; Shelat, A.; Ocasio, C. A.; McReynolds, A. C.; Nguyen, P.; Baxter, J. D.; Fletterick, R. J.; Webb, P.; Guy, R. K. A high-throughput screening method to identify small molecule inhibitors of thyroid hormone receptor coactivator binding. Sci STKE 2006, p 13.
# NCGC Assay Protocol Summary: For screening, 5 uL/well 0.6 uM TRbeta and 20 nM SRC2 Fluorescein in protein buffer (20mM Tris hydrochloride, 100mM NaCl, 10% glycerol, 1mM EDTA, 0.01% NP-40, 1mM DTT, 1uM T3 and 5% DMSO) was dispensed into black solid 1536-well plates (Grenier) using a solenoid-based dispenser. Following transfer of 23 nL compound or DMSO vehicle by a pin tool, the plates were centrifuged 15 s at 1000 RPM and incubated 5 hr at ambient temperature. The plates were read by an Envision (Perkin Elmer) to detect fluorescence polarization of SRC2 Fluorescein (480 nm excitation and 535 nm emission). Data were normalized to unbound (all components except TRbeta) and bound SRC2 Fluorescein controls. Total fluorescence (TF) was calculated as follows: TF = S + 2P where S and P are fluorescence readings in the parallel and perpendicular channels, respectively. In this assay, we provide % activity data for each concentration as well as potencies for the active compounds.
Structure (SMILES),"total fluorescence change, positive = fluorescent",Potency
CCCc1nc2c(=O)n(C)c(=O)nc-2n(C)n1,inactive: 2.84%,–
Oc1ccc2ccccc2c1C=NC12CN3CCN(CN(C3)C1)C2,–,"inconclusive: 17.8 µM [quencher, full curve, poor fit]"
COc1ccc(-c2nc(CS(=O)CC(=O)NCc3ccccn3)c(C)o2)cc1 (stereo not given),–,active: 39.8 µM [fluorescent]
Cn1cc(/C=C2\SC(=S)N(NC(=O)c3ccccc3)C2=O)c2ccccc21,–,"inconclusive: 0.355 µM [fluorescent, full curve]"
CCOC(=O)C(NC(=O)Nc1ccc(O)cc1)(c1ccccc1)C(F)(F)F (stereo not given),–,"inconclusive: 0.0316 µM [fluorescent, full curve, poor fit]"
CCOc1cc(C(c2c(C)[nH][nH]c2=O)c2c(C)[nH][nH]c2=O)ccc1OC(=O)c1cccc([N+](=O)[O-])c1,–,"inconclusive: 0.1 µM [fluorescent, full curve]"
COc1cc(/C=C(\C#N)C(=O)NCC2CCCO2)ccc1OCCC(C)C (stereo not given),inactive: -12.5%,–
COc1ccccc1Nc1cc2ccccc2c(=O)[nH]1,–,active: 44.7 µM [fluorescent]
CCCCOc1ccc(C(=O)CCN2CCCCC2)cc1,–,"inconclusive: 10 µM [fluorescent, partial curve, poor fit]"
CCC(CNc1cc(OC)cc2cccnc12)NC1CCCCC1 (stereo not given),–,"inconclusive: 35.5 µM [fluorescent, partial curve, poor fit]"
Cc1nc2ccccc2n2c(O)c(CC(=O)O)cc12,–,active: 12.6 µM [fluorescent]
Cc1[nH][nH]c(=O)c1C(c1ccc(-c2ccc(Cl)c(Cl)c2)o1)c1c(C)[nH][nH]c1=O,–,"inconclusive: 5.01 µM [fluorescent, full curve, poor fit]"
Cc1cc(C)cc(OCC(=O)NCCc2nc3ccccc3[nH]2)c1,inactive: 1.64% [at 184 µM],–
CCC(C)NC(=O)COC(=O)c1csc2c1CCCC2 (stereo not given),–,inconclusive: 0.0003 µM [fluorescent]
Nc1cc(N)c(OCC(F)(F)F)cc1OCC(F)(F)F,–,"inconclusive: 0.562 µM [fluorescent, full curve]"
Cc1ccc2c(CC(=O)Nc3c(C(=O)c4ccc(F)cc4)oc4ccccc34)coc2c1C,inactive: -8.94% [at 184 µM],–
Oc1ccc2ccccc2c1/C=N/c1nccs1,–,"inconclusive: 0.0178 µM [fluorescent, full curve]"
Cn1c(NNC(=O)c2c(F)cccc2F)cc(=O)n(C)c1=O,inactive: 7.86% [at 46.3 µM],–

Structure (SMILES),"total fluorescence change, positive = fluorescent",Potency
CC(C)(C)N1C(=O)Cc2c1nc(N)c1c(N)nc(N3CCCCC3CO)c(C#N)c21 (stereo not given),–,"inconclusive: 25.1 µM [fluorescent, partial curve, poor fit]"
Cc1cc(N=Cc2c(O)ccc3ccccc23)no1,–,"inconclusive: 14.1 µM [quencher, full curve, poor fit]"
CN(C)c1cc(Cl)c2nonc2c1N,–,"inconclusive: 4.47e-05 µM [fluorescent, full curve, poor fit]"
O=c1[nH]c(Nc2ccc(F)cc2)cc2ccccc12,–,"inconclusive: 50.1 µM [fluorescent, partial curve, poor fit]"
CCCCOc1ccc(C(=O)CCN2CCOCC2)cc1,inactive: -10.9%,–
COc1ccc2nc3cccc(OC)c3nc2c1,–,"inconclusive: 56.2 µM [fluorescent, partial curve, poor fit]"
CCN(CC)S(=O)(=O)c1cccc(N=NC2=C(O)CCCC2=O)c1,inactive: 7.56% [at 0.0112 µM],–
Oc1ccc2ccccc2c1/C=N/c1nc2c(s1)CCCC2,–,"inconclusive: 28.2 µM [quencher, full curve, poor fit]"
Nc1cc(-c2ccccc2)c[nH]c1=O,–,active: 39.8 µM [fluorescent]
O=C(O)/C=C/C(=O)Nc1ccc(SC(F)(F)C(F)(F)C(F)(F)F)cc1,–,"inconclusive: 0.004 µM [fluorescent, full curve]"
CN1c2ccccc2C(C)(C)C12C=Nc1c(cc(N3CCOCC3)c3ccccc13)O2 (stereo not given),–,"inconclusive: 0.0251 µM [fluorescent, full curve, poor fit]"
CN1CCc2ccc3c4c2[C@]1(C)Cc1cccc(c1-4)OCO3,–,active: 100 µM [fluorescent]
O=c1[nH]c(Nc2ccccc2)cc2ccccc12,–,active: 35.5 µM [fluorescent]
CC1(C)C(N(O)C(=O)Nc2ccc(Cl)cc2)N(c2ccc(Cl)cc2)C(=O)N1CC(=O)NN (stereo not given),inactive: 17.6% [at 11.6 µM],–
Cc1ccccc1Nc1cc2ccccc2c(=O)[nH]1,–,active: 25.1 µM [fluorescent] and active: 44.7 µM [fluorescent]
C=CCSc1nnc2n(-c3ccccc3OC)c(=O)c3c4c(sc3n12)CCC4,inactive: -4.12% [at 46.3 µM],–
N/C(Cc1cccc2ccccc12)=N\OC(=O)c1cccs1,–,inconclusive: 0.0001 µM [fluorescent]
